PubChem BioAssay AID1259308 – NCATS | 2017

Test: 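Knock-downs that increase output of a recombinant reporter protein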 (primary screen)
System: human HEK293 embryonic kidney cells stably expressing firefly luciferase (HEK-CMV-Luc2-Hygro)
Reagents: single siRNA against human genes, 0.8 pmol siRNA per well
Timing: 72 h
Measured: 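Reporter luminescence and viable-cell signal on separate replicate plates, given as percent of non-targeting control and median/MAD z-scores, plus per-cell luciferase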
Reading the numbers: total luciferase, z-score and total luciferase, % of control: higher = more reporter protein produced; luciferase per cell, z-score: higher = more reporter output per viable cell; viable cells, % of control: higher = more viable cells
Hit rule: 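An siRNA counts as active if its total luciferase robust z-score exceeds 3; genes with two or more such siRNAs out of three were retested with fresh siRNAs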
Calls: active = raised luciferase; inactive = no rise
Shown is one part, drawn at random, of about 59,000 deposited reagents. About 1,510 of them (2.6%) count as active. 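Calls use total luciferase alone and ignore viability, so some active siRNAs may act by altering cell number.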 A number with no mark means an inactive call. The numbers tell different reagents against one gene apart. Reagent sequences are not shown.

no.	gene symbol	siRNA no.	total luciferase, z-score	total luciferase, % of control	luciferase per cell, z-score	viable cells, % of control
1	NUP98	1	-0.868	64.6	0.184	68.8
2	NUP98	2	-0.193	78.1	0.412	78.3
3	NUP98	3	-0.356	74.8	0.251	78.2
4	FLJ40039 (retired record)	1	3.04 (active)	142	2.57	80.8
5	FLJ40039 (retired record)	2	4.24 (active)	166	3.12	81.6
6	FLJ40039 (retired record)	3	0.344	88.7	0.171	94.8
7	ZBTB5	1	1.29	107	0.901	94.7
8	ZBTB5	2	-0.675	68.5	-0.0508	77.5
9	ZBTB5	3	-0.607	69.8	-0.947	100
10	KCNA1	1	-0.565	70.7	-0.261	84.6
11	KCNA1	2	0.0846	83.6	-0.125	96.5
12	KCNA1	3	1.22	106	0.467	105
13	GJC2	1	-1.23	57.5	-0.746	78.2
14	GJC2	2	0.936	101	0.425	100
15	GJC2	3	-1.12	59.7	-0.393	73.9
16	PLEKHH1	1	-0.681	68.3	-0.863	95.9
17	PLEKHH1	2	0.15	84.9	0.221	89.5
18	PLEKHH1	3	0.0973	83.8	0.621	79.5
19	IL17C	1	0.0013	81.9	-0.424	102
20	IL17C	2	-0.449	73	-0.679	97.5
21	IL17C	3	1.62	114	1.3	90.6
22	HSPA8P14	1	-0.224	77.4	0.608	73.7
23	HSPA8P14	2	-0.434	73.3	-0.363	90.1
24	HSPA8P14	3	0.168	85.2	-0.0857	97.4
25	ZBED2	1	1.59	113	1.36	88.6
26	ZBED2	2	-0.415	73.6	0.459	72.9
27	ZBED2	3	-0.0771	80.4	-0.646	106
28	CFAP97	1	0.802	97.8	0.754	89.6
29	CFAP97	2	0.219	86.2	0.328	88.4
30	CFAP97	3	-2.03	41.5	-2.07	79.8
31	GSTO2	1	0.844	98.7	0.491	96.9
32	GSTO2	2	-0.188	78.1	-0.422	97.6
33	GSTO2	3	-0.625	69.5	0.373	70.4
34	ADGRG6	1	1.95	121	1.36	94.3
35	ADGRG6	2	1.91	120	1.15	98.9
36	ADGRG6	3	-1.3	56.1	-1.69	97.7
37	HNRNPLL	1	-0.635	69.2	-1.04	102
38	HNRNPLL	2	-0.332	75.3	-0.173	88
39	HNRNPLL	3	-1.36	54.9	-1.55	92.1
40	FTSJ1	1	-1.23	57.5	-1.38	92.2
41	FTSJ1	2	-0.223	77.5	-0.339	94.6
42	FTSJ1	3	-0.477	72.4	-0.417	90.3
43	MEPCE	1	0.903	99.9	0.949	86.9
44	MEPCE	2	1	102	1.26	81.7
45	MEPCE	3	1.41	110	1.96	73.5
46	HEATR3	1	1.72	116	2	76.5
47	HEATR3	2	-0.346	75	-0.432	93.9
48	HEATR3	3	-1.65	49.2	-1.81	88.4
49	ZNF221	1	-0.518	71.6	-0.994	104
50	ZNF221	2	0.0272	82.4	-0.125	95.2
51	ZNF221	3	-0.319	75.5	0.24	79.2
52	DEF8	1	3.19 (active)	145	1.75	102
53	DEF8	2	-0.228	77.4	-0.731	105
54	DEF8	3	0.563	93.1	0.152	99.9
55	PPP1R42	1	0.154	85	-0.822	118
56	PPP1R42	2	-0.545	71	-0.875	100
57	PPP1R42	3	0.423	90.3	0.602	86.1
58	CCDC24	1	0.292	87.7	0.173	93.6
59	CCDC24	2	-0.466	72.6	0.177	77.4
60	CCDC24	3	0.734	96.5	0.187	103
61	EFHC2	1	-1.24	57.3	-0.62	75.3
62	EFHC2	2	-0.637	69.2	-0.102	79.4
63	EFHC2	3	0.217	86.2	0.0621	94.8
64	RETREG1	1	-0.49	72.1	-0.341	88.2
65	RETREG1	2	-1.08	60.3	-1.5	100
66	RETREG1	3	-1.3	56	-1.1	83.6
67	SF3B3	1	2.41	130	4.3	46.8
68	SF3B3	2	3.24 (active)	146	3.64	62.7
69	SF3B3	3	3.31 (active)	148	4.6	49.1
70	LIN52	1	-0.438	73.2	-0.906	104
71	LIN52	2	-1.64	49.3	-1.76	87.7
72	LIN52	3	0.268	87.2	-1.05	128
73	OR1L4	1	-1.04	61.1	-0.859	85.6
74	OR1L4	2	0.814	98.1	0.755	89.8
75	OR1L4	3	-1.06	60.7	-2.37	127
